A weaker result is weaker than the reference pair of the same experiment. Where a protein sequence is shown, tags need not be part of it. For some assays here: The exact form of at least one protein or probe is not confirmed.
Experiments:
TFAM HMG2-Cter (human) = target: T1, TFAM HMG2-Cter (human) (UniProt Q00059); test: EMSA; settings: weak band, smearing; EMSA: 25 mM Tris-HCl pH 7.0, 90 mM NaCl, 1 mM DTT, 3% glycerol, 0.01% Tween20, 30 min, room temperature; G4s mostly prefolded in 10 mM cacodylate pH 6.5, 100 mM KCl; recombinant protein; residues 149-246; label: 5' 32P or SybrGold; folded or branched DNA
T1 sequence (looked up): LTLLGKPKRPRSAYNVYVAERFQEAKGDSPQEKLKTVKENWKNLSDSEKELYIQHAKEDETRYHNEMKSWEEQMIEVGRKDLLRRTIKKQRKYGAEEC

TFAM (mature) (human) = target: T2, TFAM (mature) (human) (UniProt Q00059); test: competition with a labelled probe; settings: vs 32P-G4-LSP22H, singly-bound not displaced at 375-fold; EMSA: 25 mM Tris-HCl pH 7.0, 90 mM NaCl, 1 mM DTT, 3% glycerol, 0.01% Tween20, 30 min, room temperature; G4s mostly prefolded in 10 mM cacodylate pH 6.5, 100 mM KCl; recombinant protein; residues 43-246; protein details: C-terminal 6xHis; label: 5' 32P (EMSA)
T2 sequence (looked up): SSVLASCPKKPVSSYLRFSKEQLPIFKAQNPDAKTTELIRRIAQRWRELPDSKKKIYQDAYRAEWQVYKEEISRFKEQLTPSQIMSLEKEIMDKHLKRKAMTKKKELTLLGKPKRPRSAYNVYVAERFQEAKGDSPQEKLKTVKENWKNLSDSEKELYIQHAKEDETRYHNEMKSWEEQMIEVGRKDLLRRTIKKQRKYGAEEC

| Sequence | binding result (TFAM HMG2-Cter (human)) | binding result (TFAM (mature) (human)) |
| --- | --- | --- |
| GTTAGTTGGGGGGTGACTGTTA [G4-LSP22H] | binds more weakly | – |
| GTTAGTTGGGGGGTGACTGTTA (double strand) [dsLSP22] | – | binds more weakly |

— publication PMC5343656, “The human mitochondrial transcription factor A is a versatile G-quadruplex binding protein”
